Experimental data: patent US20250034261A1 (TAIZHOU ENZE MEDICAL CENTER GROUP, published 2025)
No constants are given. Whether binding was seen depends on the method and setting. Some entries that bind do so weakly or less than the wild type.

Target: HLA-G2 standard protein (human) (UniProt P17693)
Experiment: immunoblot, antibody at 1.0 ug/ml

B1: monoclonal antibody (YWHG-3) against HLA-G1, -G2, -G5 and HLA-G6 isoforms (antibody, IgG1, V domains shown)
VH: LVQLQQSGGGLVKPGGSLKLSCAASGFTFSDYNMYWVRQTPEKRLEWVATISDGGRSTFYLDSVKGRFTISRDNAKNNLYLQINNLKSEDTAIYYCVRDDYWGQGTTLTVSS
VL: DIMMTQTPLSLPVSLGDQASISCRSSQSLVHSTGNTFLNWYLQKPGQSPKLLIYKVSNRFSGVSDRFSGSGSGTDFTLKIRRVEAEDLGVYFCSQSTHVPWTFGGGTKLEIK
notes: Used biotin-labelled in the HLA-G5 ELISA and FITC-labelled in flow cytometry; also called hybridoma CCTCC NO: 202121
  binding: binds
